From PubChem BioAssay AID200 (DTP/NCI, 2004)
The list shows only some results of the screen, not a fair sample: it gathers tests that were run many times, whatever their T/C, doses with no T/C, and many T/C values between a quarter and a half above the control. Further doses and runs are listed elsewhere. T/C: endpoint of the treated group in % of that of the vehicle group. Some doses have a count of surviving animals in place of a T/C: the source holds a T/C of zero for them, seemingly a mark for toxic or unscored doses. Some survivor counts are full or nearly so, which does not show that the dose was tolerated: the source hardly ever lists a survival T/C far under the control, and the zero likely stands for such cases as well. Survivors were counted at the toxicity check, usually on the fifth day, unless a day is given; later deaths do not show. Schedules are NCI's codes, taken here to give the interval after Q, in days (D) or hours (H), and the number of doses after X. Some entries were tested several times; the values are given in rising order. Where survival is the endpoint, the PubChem record calls one and a half times the control and up active, and a quarter to a half above the control has no call in these data; cut-offs in other NCI protocols can differ. Some T/C values are followed by the survivors on the day toxicity was checked, most often the fifth; without a count, all were alive then.

Test system: B6C3F1 mice, B16 melanoma ip, median survival T/C
Assay: NCI In Vivo Anticancer Drug Screen. Data for tumor model B16 Melanoma (intraperitoneal) in B6C3F1 mice
Conditions: T/C endpoint: median survival time, higher T/C = longer survival
Method in brief: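 Readout: survival or tumor size in treated mice relative to vehicle controls (T/C). Model uses transplantable tumors grown in mice.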

[1] = dose: 0.05 mg/kg/injection, schedule: Q01DX009 (ip), vehicle: other
[2] = dose: 0.1 mg/kg/injection, schedule: Q01DX009 (ip), vehicle: Klucel (hydroxypropylcellulose) (HPC)
[3] = dose: 0.1 mg/kg/injection, schedule: Q01DX009 (ip), vehicle: other
[4] = dose: 0.2 mg/kg/injection, schedule: Q01DX009 (ip), vehicle: Klucel (hydroxypropylcellulose) (HPC)
[5] = dose: 25.0 mg/kg/injection, schedule: Q01DX009 (ip), vehicle: saline
[6] = dose: 100.0 mg/kg/injection, schedule: Q01DX009 (ip), vehicle: Klucel (hydroxypropylcellulose) (HPC)
[7] = dose: 12.5 mg/kg/injection, schedule: Q01DX009 (ip), vehicle: saline with Tween-80
[8] = dose: 12.5 mg/kg/injection, schedule: Q01DX009 (ip), vehicle: saline

CO[C@H](/C(C)=C/C=C/C(C)=C/c1coc(C)n1)[C@H](C)[C@H]1C[C@@H](O)[C@@]2(C)O[C@H]2/C=C/[C@@H](C)[C@@H]2C[C@@H](CC(=O)O2)C[C@H]2O[C@@H]2C(=O)O1
survivor count (dose: 0.03 mg/kg/injection, schedule: Q01DX009 (ip), vehicle: other): 10 of 10 | T/C (dose: 0.05 mg/kg/injection, schedule: Q01DX009 (ip), vehicle: Klucel (hydroxypropylcellulose) (HPC)): 122, 123, 128, 171 % of control | T/C [1]: 127 % of control | survivor count [1]: 10 of 10 | T/C (dose: 0.05 mg/kg/injection, schedule: Q01DX009 (sc), vehicle: Klucel (hydroxypropylcellulose) (HPC)): 126 % of control | T/C [2]: 124, 133, 145, 211 % of control | survivor count [2]: 9 of 10 | T/C [3]: 128 % of control | survivor count [3]: 6 of 10 | T/C [4]: 136, 142, 183, 214 % of control | survivor count [4]: 10 of 10 | survivor count (dose: 0.2 mg/kg/injection, schedule: Q01DX009 (ip), vehicle: other): 5 of 10 and 10 of 10 | T/C (dose: 0.2 mg/kg/injection, schedule: Q01DX009 (sc), vehicle: Klucel (hydroxypropylcellulose) (HPC)): 129 % of control | survivor count (dose: 0.4 mg/kg/injection, schedule: Q01DX009 (ip), vehicle: Klucel (hydroxypropylcellulose) (HPC)): 6 of 10 and 10 of 10 | survivor count (dose: 0.4 mg/kg/injection, schedule: Q01DX009 (ip), vehicle: other): 2 of 10 and 10 of 10 | survivor count (dose: 0.8 mg/kg/injection, schedule: Q01DX009 (ip), vehicle: Klucel (hydroxypropylcellulose) (HPC)): 1 of 10, 2 of 10, 3 of 10, 8 of 10 | survivor count (dose: 0.8 mg/kg/injection, schedule: Q01DX009 (ip), vehicle: other): 1 of 10 and 4 of 10 | survivor count (dose: 0.8 mg/kg/injection, schedule: Q01DX009 (sc), vehicle: Klucel (hydroxypropylcellulose) (HPC)): 9 of 10 | survivor count (dose: 1.6 mg/kg/injection, schedule: Q01DX009 (ip), vehicle: Klucel (hydroxypropylcellulose) (HPC)): 0 of 10

C[CH2][Sn]([CH2]C)([O]S(C)(=O)=O)[O]S(C)(=O)=O
survivor count [5]: 2 of 10 and 4 of 10

CC(C)(C)OC(=O)NC(CC(=O)OCc1ccccc1)C(=O)ON1C(=O)CCC1=O (stereo unspecified)
survivor count [6]: 10 of 10 | survivor count (dose: 200.0 mg/kg/injection, schedule: Q01DX009 (ip), vehicle: Klucel (hydroxypropylcellulose) (HPC)): 10 of 10 | survivor count (dose: 400.0 mg/kg/injection, schedule: Q01DX009 (ip), vehicle: Klucel (hydroxypropylcellulose) (HPC)): 8 of 10

O=C1c2cccc3cc([N+](=O)[O-])cc(c23)C(=O)N1CCN1CCCC1
T/C (dose: 3.12 mg/kg/injection, schedule: Q01DX009 (ip), vehicle: saline with Tween-80): 132 % of control | T/C (dose: 3.13 mg/kg/injection, schedule: Q01DX009 (ip), vehicle: saline with Tween-80): 143 % of control | T/C (dose: 6.25 mg/kg/injection, schedule: Q01DX009 (ip), vehicle: saline with Tween-80): 141 % of control | T/C [7]: 136 % of control [9 of 10 alive] | survivor count [7]: 9 of 10 | survivor count (dose: 25.0 mg/kg/injection, schedule: Q01DX009 (ip), vehicle: saline with Tween-80): 7 of 10 | survivor count (dose: 50.0 mg/kg/injection, schedule: Q01DX009 (ip), vehicle: saline with Tween-80): 4 of 10

CC1OC1C(=O)C1(O)C(C)C(O)C23OC2(C(O)c2c(O)cccc2C3=O)C1O (stereo unspecified)
T/C (dose: 0.5 mg/kg/injection, schedule: Q01DX009 (ip), vehicle: Klucel (hydroxypropylcellulose) (HPC), evaluated on day 50): 99 % of control | T/C (dose: 0.5 mg/kg/injection, schedule: Q01DX009 (ip), vehicle: Klucel (hydroxypropylcellulose) (HPC), evaluated on day 60): 88 and 89 % of control | T/C (dose: 1.0 mg/kg/injection, schedule: Q01DX009 (ip), vehicle: Klucel (hydroxypropylcellulose) (HPC), evaluated on day 50): 107 % of control | T/C (dose: 1.0 mg/kg/injection, schedule: Q01DX009 (ip), vehicle: Klucel (hydroxypropylcellulose) (HPC), evaluated on day 60): 95 % of control | survivor count (dose: 1.0 mg/kg/injection, schedule: Q01DX009 (ip), vehicle: Klucel (hydroxypropylcellulose) (HPC)): 10 of 10 | T/C (dose: 2.0 mg/kg/injection, schedule: Q01DX009 (ip), vehicle: Klucel (hydroxypropylcellulose) (HPC), evaluated on day 50): 111 % of control [9 of 10 alive] | T/C (dose: 2.0 mg/kg/injection, schedule: Q01DX009 (ip), vehicle: Klucel (hydroxypropylcellulose) (HPC), evaluated on day 60): 102 % of control | survivor count (dose: 2.0 mg/kg/injection, schedule: Q01DX009 (ip), vehicle: Klucel (hydroxypropylcellulose) (HPC)): 10 of 10 | T/C (dose: 4.0 mg/kg/injection, schedule: Q01DX009 (ip), vehicle: Klucel (hydroxypropylcellulose) (HPC), evaluated on day 50): 119 % of control | T/C (dose: 4.0 mg/kg/injection, schedule: Q01DX009 (ip), vehicle: Klucel (hydroxypropylcellulose) (HPC), evaluated on day 60): 106 and 108 % of control | T/C (dose: 8.0 mg/kg/injection, schedule: Q01DX009 (ip), vehicle: Klucel (hydroxypropylcellulose) (HPC), evaluated on day 50): 123 % of control | T/C (dose: 8.0 mg/kg/injection, schedule: Q01DX009 (ip), vehicle: Klucel (hydroxypropylcellulose) (HPC), evaluated on day 60): 113 and 135 % of control | survivor count (dose: 16.0 mg/kg/injection, schedule: Q01DX009 (ip), vehicle: Klucel (hydroxypropylcellulose) (HPC)): 7 of 10, 9 of 10, 10 of 10

COc1cc(C)c2c(c1C=O)Oc1c(c(C)c(O)c3c1C(O)OC3=O)OC2=O (stereo unspecified)
survivor count (dose: 100.0 mg/kg/injection, schedule: Q01DX009 (ip), vehicle: saline): 7 of 10

Cc1ccc(NN=O)nc1
T/C (dose: 3.12 mg/kg/injection, schedule: Q01DX009 (ip), vehicle: water): 130 % of control | T/C (dose: 6.25 mg/kg/injection, schedule: Q01DX009 (ip), vehicle: water): 142 % of control | T/C (dose: 12.0 mg/kg/injection, schedule: Q01DX009 (ip), vehicle: water): 140 % of control | survivor count (dose: 12.5 mg/kg/injection, schedule: Q01DX009 (ip), vehicle: water): 9 of 10 | survivor count (dose: 25.0 mg/kg/injection, schedule: Q01DX009 (ip), vehicle: water): 8 of 10

O=CC=O
survivor count (dose: 400.0 mg/kg/injection, schedule: Q01DX009 (ip), vehicle: saline with Tween-80): 0 of 10 and 8 of 10

C[n+]1c(-c2cccc3ccccc23)c2cc(N)ccc2c2ccccc21
T/C (dose: 3.13 mg/kg/injection, schedule: Q01DX009 (ip), vehicle: saline): 126 and 130 % of control | T/C (dose: 6.25 mg/kg/injection, schedule: Q01DX009 (ip), vehicle: saline): 126 and 130 % of control | T/C [8]: 126 and 132 % of control [9 of 10 alive] | survivor count [8]: 9 of 10 | survivor count [5]: 2 of 10, 4 of 10, 10 of 10 | survivor count (dose: 50.0 mg/kg/injection, schedule: Q01DX009 (ip), vehicle: saline): 3 of 10

CCCCNc1ccc2nnc(C)n2n1
survivor count (dose: 200.0 mg/kg/injection, schedule: Q01DX009 (ip), vehicle: DMSO): 6 of 10 | survivor count (dose: 400.0 mg/kg/injection, schedule: Q01DX009 (ip), vehicle: DMSO): 1 of 10 and 7 of 10 | survivor count (dose: 800.0 mg/kg/injection, schedule: Q01DX009 (ip), vehicle: DMSO): 0 of 10

CN(C)CCNc1ccc(NCCN(C)C)c2c1C(=O)c1ccccc1C2=O
T/C (dose: 40.0 mg/kg/injection, schedule: Q01DX009 (ip), vehicle: distilled water + Tween-80): 139 % of control | survivor count (dose: 80.0 mg/kg/injection, schedule: Q01DX009 (ip), vehicle: distilled water + Tween-80): 10 of 10 | survivor count (dose: 160.0 mg/kg/injection, schedule: Q01DX009 (ip), vehicle: distilled water + Tween-80): 2 of 10 | survivor count (dose: 320.0 mg/kg/injection, schedule: Q01DX009 (ip), vehicle: distilled water + Tween-80): 0 of 10

[N-]=[N+]=C1N=CN=C1c1ncn[nH]1
T/C (dose: 25.0 mg/kg/injection, schedule: Q01DX009 (ip), vehicle: Klucel (hydroxypropylcellulose) (HPC)): 146 % of control | T/C (dose: 50.0 mg/kg/injection, schedule: Q01DX009 (ip), vehicle: Klucel (hydroxypropylcellulose) (HPC)): 134 % of control | survivor count [6]: 6 of 10
